Measured values as given in paper PMC6510286.
These are yes or no findings as the source states them, for the method shown. In cells and extracts the contact can be indirect. Some results given as binding are weak or reduced against the parent protein; the word gives no strength.

Assays:
Settings in all cases: remark: other sources report otherwise
[1] = molecular target: EZH2 (human (endogenous in HepG2 and SW480)), Q15910; experiment: co-IP; endogenous proteins from cell lysates (cell line not stated); USP7 antibody or EZH2 antibody; cells without and with shUSP7 or shEZH2 knock-down; IgG as negative control; immunoblot
[2] = molecular target: EZH2 (human (endogenous in HepG2 and SW480)), Q15910; experiment: co-IP; endogenous proteins from HepG2 nuclear extracts; antibody against EZH2, LSD1 or HDAC1 on protein G-sepharose, overnight at 4°C, washed in TBST (pH 7.2, 25 mM Tris-HCl, 150 mM NaCl, 0.5% Tween-20); IgG as negative control; immunoblot
[3] = molecular target: EZH2 (human (endogenous in HepG2 and SW480)), Q15910; experiment: co-IP; endogenous proteins from SW480 cells; IgG as negative control; immunoblot

Row | Binder | binding [1] | binding [2] | binding [3]
1 | SMAD2, Q15796 1-467 (protein) MSSILPFTPPVVKRLLGWKKSAGGSGGAGGGEQNGQEEKWCEKAVKSLVKKLKKTGRLDELEKAITTQNCNTKCVTIPSTCSEIWGLSTPNTIDQWDTTGLYSFSEQTRSLDGRLQVSHRKGLPHVIYCRLWRWPDLHSHHELKAIENCEYAFNLKKDEVCVNPYHYQRVETPVLPPVLVPRHTEILTELPPLDDYTHSIPENTNFPAGIEPQSNYIPETPPPGYISEDGETSDQQLNQSMDTGSPAELSPTTLSPVNHSLDLQPVTYSEPAFWCSIAYYELNQRVGETFHASQPSLTVDGFTDPSNSERFCLGLLSNVNRNATVEMTRRHIGRGVRLYYIGGEVFAECLSDSAIFVQSPNCNQRYGWHPATVCKIPPGCNLKIFNNQEFAALLAQSVNQGFEAVYQLTRMCTIRMSFVKGWGAEYRRQTVTSTPCWIELHLNGPLQWLDKVLTQMGSPSVRCSSMS | binds | binds | binds
2 | SMAD4, Q13485 1-552 (protein) MDNMSITNTPTSNDACLSIVHSLMCHRQGGESETFAKRAIESLVKKLKEKKDELDSLITAITTNGAHPSKCVTIQRTLDGRLQVAGRKGFPHVIYARLWRWPDLHKNELKHVKYCQYAFDLKCDSVCVNPYHYERVVSPGIDLSGLTLQSNAPSSMMVKDEYVHDFEGQPSLSTEGHSIQTIQHPPSNRASTETYSTPALLAPSESNATSTANFPNIPVASTSQPASILGGSHSEGLLQIASGPQPGQQQNGFTGQPATYHHNSTTTWTGSRTAPYTPNLPHHQNGHLQHHPPMPPHPGHYWPVHNELAFQPPISNHPAPEYWCSIAYFEMDVQVGETFKVPSSCPIVTVDGYVDPSGGDRFCLGQLSNVHRTEAIERARLHIGKGVQLECKGEGDVWVRCLSDHAVFVQSYYLDREAGRAPGDAVHKIYPSAYIKVFDLRQCHRQMQQQAATAQAAAAAQAAAVAGNIPGPGSVGGIAPAISLSAAAGIGVDDLRRLCILRMSFVKGWGPDYPRQSIKETPCWIEIHLHRALQLLDEVLHTMPIADPQPLD | binds |  | binds
